# The campaign covered roughly 330,000 compounds. About 610 (0.18%) were called active. Inconclusive results, whose numbers are uncertain, are shown with a selection of clear calls. Calls come from the whole dose curve. Potencies of inconclusive entries are doubtful fits and often do not repeat.
# Assay: qHTS of Yeast-based Assay for SARS-CoV PLP; note: nearly all actives have a fitted effect of over 55% in size
# Conditions: S. cerevisiae expressing SARS-CoV PLpro; Potency: growth rescue; series mostly up to 32.9 µM
# Potency is the fitted concentration of half-maximal effect.
row,SMILES,Potency
1,COc1ccccc1C(=O)NC(CCSC)C(=O)NNC(=O)c1csc(N2CCOCC2)n1 (centres undefined),"inconclusive: 1 µM [activator, partial curve]"
2,O=C(CSc1nnc(-c2ccccc2O)n1Cc1ccccc1)NNC(=O)c1ccccc1O,active: 6.31 µM
3,O=C(OCC#CCSc1nnc(-c2ccc(Br)cc2)o1)c1cccs1,"inconclusive: 22.4 µM [activator, single point]"
4,O=S(=O)(c1ccc2ccccc2c1)N(CC(O)CN1CCOCC1)c1ccccc1 (centres undefined),"inconclusive: 3.98 µM [activator, single point]"
5,CCOc1ccc(-n2c(O)c(/C=N/NC(=O)C3COc4ccccc4O3)c3ccccc3c2=O)cc1 (centres undefined),active: 11.2 µM
6,COc1ccc(NC(=S)N/N=C2\CC(C)(C)Oc3ccc(O)cc32)cc1,"inconclusive: 20 µM [activator, single point]"
7,Cc1cc2oc(=O)cc(Cn3ncc(Cl)c(Cl)c3=O)c2cc1Cl,inactive
8,Cc1c(-n2c(SCC(=O)C(C)(C)C)nc3ccccc3c2=O)c(=O)n(-c2ccccc2)n1C,inactive
9,C=CCN1C(=O)CSc2ccc(C(=O)N3CCC4(CC3)OCCO4)cc21,"inconclusive: 0.398 µM [activator, full curve, poor fit]"
10,COc1ccc(CNC(=O)COC(=O)CCOc2ccccc2)cc1,"inconclusive: 20 µM [activator, single point]"
11,COC(=O)c1ccc(NC(=S)N2CCC(C(N)=O)CC2)cc1,"inconclusive: 3.55 µM [activator, full curve, poor fit]"
12,CC1CCc2c(sc3nc(CSc4n[nH]c(N)n4)[nH]c(=O)c23)C1 (centres undefined),inactive
13,CCc1ccccc1OCC(=O)Nc1nc(-c2cccnc2)cs1,"inconclusive: 2.24 µM [activator, full curve]"
14,CC(=O)Oc1ccc(C(=O)[C@H]2[C@H]3C(=O)N(c4ccc5ccccc5c4)C(=O)[C@H]3[C@@H]3C=CC=NN32)cc1,active: 3.16 µM
15,CCn1c(CNC(=O)c2ccc(OC)c(OC)c2)nnc1SCC(=O)Nc1ccccc1,"inconclusive: 10 µM [activator, partial curve]"
16,CC(=O)N1c2ccc(S(=O)(=O)NCCC(=O)Nc3ncccc3C)cc2CC1C (centres undefined),inactive
17,COc1ccc2c(c1)-c1ccccc1S(=O)(=O)N(C)C2,"inconclusive: 12.6 µM [activator, partial curve]"
18,Cc1cccc(N2CCN(S(=O)(=O)c3ccc4c(c3)NC(=O)CS4)CC2)c1C,"inconclusive: 17.8 µM [activator, single point]"
19,O=C(CCN1C(=O)C2C3C=CC(C3)C2C1=O)Nc1ccccc1F (centres undefined),"inconclusive: 3.16 µM [activator, partial curve]"

# An excerpt of these results, bar-delimited.
row | SMILES | Potency
3 | O=C(OCC#CCSc1nnc(-c2ccc(Br)cc2)o1)c1cccs1 | inconclusive: 22.4 µM [activator, single point]
10 | COc1ccc(CNC(=O)COC(=O)CCOc2ccccc2)cc1 | inconclusive: 20 µM [activator, single point]

# Reference: PubChem BioAssay AID485353 (National Center for Advancing Translational Sciences (NCATS), 2010)
